Results are given in words; binding and its absence hold for the method and conditions named. Some results given as binding are weak or reduced against the parent protein; the word gives no strength.

Amino acid sequences for entries named in this document (tags omitted). Residues count along the entry.
UniProt Q9SLY8, residues 30-424: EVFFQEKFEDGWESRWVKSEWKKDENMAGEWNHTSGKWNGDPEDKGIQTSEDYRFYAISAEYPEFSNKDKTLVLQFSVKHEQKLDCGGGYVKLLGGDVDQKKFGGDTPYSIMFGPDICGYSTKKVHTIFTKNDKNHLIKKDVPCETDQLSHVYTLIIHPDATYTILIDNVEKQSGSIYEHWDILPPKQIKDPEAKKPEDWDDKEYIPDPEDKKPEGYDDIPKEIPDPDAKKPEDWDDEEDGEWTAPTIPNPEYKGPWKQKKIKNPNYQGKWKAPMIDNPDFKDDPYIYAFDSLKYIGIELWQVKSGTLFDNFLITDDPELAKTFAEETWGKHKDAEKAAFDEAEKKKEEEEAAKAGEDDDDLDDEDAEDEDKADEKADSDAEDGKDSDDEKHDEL

Data on one molecule can be found in patent publication US20030200567A1.

For the test, the target named is calreticulin (CRT) (rice) (UniProt Q9SLY8). In words: yeast two-hybrid, CRT bait against rice cultured-cell cDNA library.

B1: CRT-interacting polypeptide (CRTintP) (protein)
chain: MSEDASVGASSSTVKAGDDPEATIEINIKTLDSQVHKLRVKKNVPVLVLKEKIVEATGVPVDQQRLIFRGRVLKDDHLLSEYHLEDGYTLHLVARRAAAEGQHSSGTSDENTHANVNVAGNGLLGDISRSVRDILGSLGLATPGGMTNTTFSVPLTTAPKGANNVNGRTQPGNHAQPGFSILNHQIQVSQLQPAGSIPRNMVIPDSLTTLLEYINRMDQVLQNNGTPSVDTNTQQPPRSDDAYLNQRFPSPEVLVSVIERAQQLLGGSAASALSHLAQPIQRDSGTSDASIRSQIQNESAQLGVAMQHLGAMFLELGRTMMMLRMGPSPADAFVNAGSSVYINSAGPNPIMVQPSFQNTPPFGVSSIPVLGGISGAFGIVDPSRTSAVNTHGTSTTSGSSAGMTTASAGAVNEGRQNVERTQGGNPSATSMHGLPARTVIAAIPARSTAEAPNHVLSVILPVQVRSQVAMPNQSTVSQGSQTAVGGGSQPQASVGGVASIPSIVAQVTAQVANALSANQQGQVSSSAQNTVDQGSRSVTTNGVDNVDSLVSASTQLQNELSDSNNGRTSLNAQSLVAGAGISPSNTSDPNLASEDSSTENAPNIGSIQQHPEMEGIHADNVRKPSEESTTANLVGQITTTCTDDISVNRSAENSSQKNIPLDGVSAQSIKPSASSRSEPVGLGGGLQPKRRSRTAKPPGSSSDTGEVVNSSRISNSQNAVSMGQQVLQALASQNTNVNRSHVTDSPLPSTTSQFSGGMPPRRQGGEGQVDFGSMISSVLNNPAFGNLLSNVAEQTGMGSAGDLRNMVEECAQSPAIMDTMSNLVQNVDGSGRGQGGIDLSRMMQQMMPVVSQVLGGAGARPAGTNSGQSRLQPRRSDMRVDDASDYGNSQIDLHQAREHIEQHDSPRDIFGAVLETAAQAYGEDESIEDMLEELVSDPELTDDYLKLLLQQVRQRIQSASQSGNQS
With B1, the binding entry is recorded as “binds”.
